Experimental findings from article PMC9793311 are described below.

Chains of the proteins cited; added tags and fusions are not shown. Lines headed by an entry give the natural chain unless they say otherwise; changes in a name come on top.
UniProt P40793: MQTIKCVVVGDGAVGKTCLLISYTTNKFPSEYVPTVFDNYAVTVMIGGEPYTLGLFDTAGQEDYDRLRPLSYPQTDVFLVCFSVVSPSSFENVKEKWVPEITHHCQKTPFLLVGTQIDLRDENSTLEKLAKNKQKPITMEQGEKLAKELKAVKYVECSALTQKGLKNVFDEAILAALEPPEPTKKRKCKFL

These are yes or no findings as the source states them, for the method shown. For some of these results: Binding seen in cells or lysates may run through a third protein. Some binding calls cover weakened binding; strength is not graded here. For some of these results: Sequences can lack the tags named with a protein.

The target of experiment [1] is T1, His Par-6 1–351 (Drosophila melanogaster) (UniProt O97111).
T1 sequence: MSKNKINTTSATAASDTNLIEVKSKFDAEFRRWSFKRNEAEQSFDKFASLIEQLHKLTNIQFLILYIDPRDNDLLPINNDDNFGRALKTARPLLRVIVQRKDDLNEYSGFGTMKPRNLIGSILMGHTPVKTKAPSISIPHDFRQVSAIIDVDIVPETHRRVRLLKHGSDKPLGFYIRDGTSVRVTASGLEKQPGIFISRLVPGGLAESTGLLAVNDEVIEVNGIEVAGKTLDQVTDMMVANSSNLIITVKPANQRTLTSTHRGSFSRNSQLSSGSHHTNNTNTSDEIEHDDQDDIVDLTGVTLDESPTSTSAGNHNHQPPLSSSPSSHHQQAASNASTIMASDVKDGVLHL
In words: co-purification; His Par-6 and untagged aPKC coexpressed in 293F cells; lysate on cobalt or nickel resin, then Source Q anion exchange.

Experiment [2] addresses GST-Cdc42^Q61L (Drosophila melanogaster) (UniProt P40793). In words: pull-down; data not shown: Par-3 PDZ3 added to Par complex on solid phase Cdc42.
The target is the same in experiment [3]. Description: pull-down; GST-fused protein on glutathione resin (from bacterial lysate, washed 4x); soluble purified proteins added, 60 min at room temperature; 20 mM Hepes pH 7.5, 100 mM NaCl, 5 mM MgCl2, 0.5% Tween-20, 1 mM DTT, 200 uM ATP; Coomassie-stained gel; both purified.

B1: aPKC 1–600 (enzyme, UniProt A1Z9X0 1-600)
chain: MQKMPSQILNDGSSVSLNSASMNMANTPNSITVKTAYNGQIIITTINKNISYEELCYEIRNICRFPLDQPFTIKWVDEENDPCTISTKMELDEAIRLYEMNFDSQLVIHVFPNVPQAPGLSCDGEDRSIYRRGARRWRKLYRVNGHIFQAKRFNRRAFCAYCQDRIWGLGRQGFKCIQCKLLVHKKCHKLVQKHCTDQPEPLVKERAEESSDPIPVPLPPLPYEAMSGGAEACETHDHAHIVAPPPPEDPLEPGTQRQYSLNDFELIRVIGRGSYAKVLMVELRRTRRIYAMKVIKKALVTDDEDIDWVQTEKHVFETASNHPFLVGLHSCFQTPSRLFFVIEFVRGGDLMYHMQRQRRLPEEHARFYAAEISLALNFLHEKGIIYRDLKLDNVLLDHEGHIKLTDYGMCKEGIRPGDTTSTFCGTPNYIAPEILRGEDYGFSVDWWALGVLLYEMLAGRSPFDLAGASENPDQNTEDYLFQVILEKTIRIPRSLSVRAASVLKGFLNKNPADRLGCHRESAFMDIVSHPFFKNMDWELLERKQVTPPFKPRLDSDRDLANFPPEFTGEAVQLTPDDDHVIDNIDQSEFEGFEYVNPLLM
B1: the binding entry in experiment [1] is “binds”.

B2: Par complex (complex, UniProt O97111 1-351; A1Z9X0 1-606)
chain 1: MSKNKINTTSATAASDTNLIEVKSKFDAEFRRWSFKRNEAEQSFDKFASLIEQLHKLTNIQFLILYIDPRDNDLLPINNDDNFGRALKTARPLLRVIVQRKDDLNEYSGFGTMKPRNLIGSILMGHTPVKTKAPSISIPHDFRQVSAIIDVDIVPETHRRVRLLKHGSDKPLGFYIRDGTSVRVTASGLEKQPGIFISRLVPGGLAESTGLLAVNDEVIEVNGIEVAGKTLDQVTDMMVANSSNLIITVKPANQRTLTSTHRGSFSRNSQLSSGSHHTNNTNTSDEIEHDDQDDIVDLTGVTLDESPTSTSAGNHNHQPPLSSSPSSHHQQAASNASTIMASDVKDGVLHL
chain 2: MQKMPSQILNDGSSVSLNSASMNMANTPNSITVKTAYNGQIIITTINKNISYEELCYEIRNICRFPLDQPFTIKWVDEENDPCTISTKMELDEAIRLYEMNFDSQLVIHVFPNVPQAPGLSCDGEDRSIYRRGARRWRKLYRVNGHIFQAKRFNRRAFCAYCQDRIWGLGRQGFKCIQCKLLVHKKCHKLVQKHCTDQPEPLVKERAEESSDPIPVPLPPLPYEAMSGGAEACETHDHAHIVAPPPPEDPLEPGTQRQYSLNDFELIRVIGRGSYAKVLMVELRRTRRIYAMKVIKKALVTDDEDIDWVQTEKHVFETASNHPFLVGLHSCFQTPSRLFFVIEFVRGGDLMYHMQRQRRLPEEHARFYAAEISLALNFLHEKGIIYRDLKLDNVLLDHEGHIKLTDYGMCKEGIRPGDTTSTFCGTPNYIAPEILRGEDYGFSVDWWALGVLLYEMLAGRSPFDLAGASENPDQNTEDYLFQVILEKTIRIPRSLSVRAASVLKGFLNKNPADRLGCHRESAFMDIVSHPFFKNMDWELLERKQVTPPFKPRLDSDRDLANFPPEFTGEAVQLTPDDDHVIDNIDQSEFEGFEYVNPLLMSLEDCV
With B2, the binding result in experiment [2] and in experiment [3] was “binds” each time.

B3: aPKC 1–606 (enzyme, UniProt A1Z9X0 1-606)
chain: MQKMPSQILNDGSSVSLNSASMNMANTPNSITVKTAYNGQIIITTINKNISYEELCYEIRNICRFPLDQPFTIKWVDEENDPCTISTKMELDEAIRLYEMNFDSQLVIHVFPNVPQAPGLSCDGEDRSIYRRGARRWRKLYRVNGHIFQAKRFNRRAFCAYCQDRIWGLGRQGFKCIQCKLLVHKKCHKLVQKHCTDQPEPLVKERAEESSDPIPVPLPPLPYEAMSGGAEACETHDHAHIVAPPPPEDPLEPGTQRQYSLNDFELIRVIGRGSYAKVLMVELRRTRRIYAMKVIKKALVTDDEDIDWVQTEKHVFETASNHPFLVGLHSCFQTPSRLFFVIEFVRGGDLMYHMQRQRRLPEEHARFYAAEISLALNFLHEKGIIYRDLKLDNVLLDHEGHIKLTDYGMCKEGIRPGDTTSTFCGTPNYIAPEILRGEDYGFSVDWWALGVLLYEMLAGRSPFDLAGASENPDQNTEDYLFQVILEKTIRIPRSLSVRAASVLKGFLNKNPADRLGCHRESAFMDIVSHPFFKNMDWELLERKQVTPPFKPRLDSDRDLANFPPEFTGEAVQLTPDDDHVIDNIDQSEFEGFEYVNPLLMSLEDCV
B3: the binding result in experiment [1] is “binds”.
